{"source": "the supplement of paper PMC8728848", "binders": {"B1": {"name": "pilr alpha (protein)", "chain": "MLYGVTQPKHLSASMGGSVEIPFSFYYPWELATAPDVRISWRRGHFHRQSFYSTRPPSIHKDYVNRLFLNWTEGQKSGFLRISNLQKQDQSVYFCRVELDTRSSGRQQWQSIEGTKLSIT"}}, "test_in_all_cases": "glycan array binding signal (z-score within array); higher = stronger binding", "conditions_in_all_cases": "glycan notation: IUPAC condensed, linker removed", "key": {"Fuc(a1-3)GlcNAc": {"molecular_target": "Fuc(a1-3)GlcNAc", "method_in_brief": "(§1)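 Columns mapping to the same glycan were averaged after glycan names were converted to IUPAC-condensed notation. The data come from 3228 arrays in the Consortium for Functional Glycomics database, limited to those with an available protein sequence. Binding is reported as a within-array Z-score averaged across arrays of one protein sequence and across linkers.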"}, "[1]": {"molecular_target": "Fuc(a1-3)[Gal(b1-4)]Glc6S", "method_in_brief": "as §1"}, "[2]": {"molecular_target": "Fuc(a1-3)[Gal(b1-4)]GlcNAc", "method_in_brief": "as §1"}, "[3]": {"molecular_target": "Fuc(a1-3)[Gal(b1-4)]GlcNAc(b1-2)Man", "method_in_brief": "as §1"}, "[4]": {"molecular_target": "Fuc(a1-3)[Gal(b1-4)]GlcNAc(b1-2)Man(a1-3)[Fuc(a1-3)[Gal(b1-4)]GlcNAc(b1-2)Man(a1-6)]Man(b1-4)GlcNAc(b1-4)GlcNAc", "method_in_brief": "as §1"}, "[5]": {"molecular_target": "Fuc(a1-3)[Gal(b1-4)]GlcNAc(b1-2)Man(a1-3)[Fuc(a1-3)[Gal(b1-4)]GlcNAc(b1-2)Man(a1-6)]Man(b1-4)GlcNAc(b1-4)[Fuc(a1-6)]GlcNAc", "method_in_brief": "as §1"}, "[6]": {"molecular_target": "Fuc(a1-3)[Gal(b1-4)]GlcNAc(b1-3)Gal(b1-3)[Fuc(a1-4)]GlcNAc", "method_in_brief": "as §1"}, "[7]": {"molecular_target": "Fuc(a1-3)[Gal(b1-4)]GlcNAc(b1-3)Gal(b1-4)[Fuc(a1-3)]GlcNAc", "method_in_brief": "as §1"}, "[8]": {"molecular_target": "Fuc(a1-3)[Gal(b1-4)]GlcNAc(b1-3)Gal(b1-4)[Fuc(a1-3)]GlcNAc(b1-3)Gal(b1-4)[Fuc(a1-3)]GlcNAc", "method_in_brief": "as §1"}, "[9]": {"molecular_target": "Fuc(a1-3)[Gal(b1-4)]GlcNAc(b1-3)GalNAc", "method_in_brief": "as §1"}, "[10]": {"molecular_target": "Fuc(a1-3)[Gal(b1-4)]GlcNAc(b1-6)GalNAc", "method_in_brief": "as §1"}, "[11]": {"molecular_target": "Fuc(a1-3)[Gal(b1-4)]GlcNAc(b1-6)[Gal(b1-3)GlcNAc(b1-3)]Gal(b1-4)Glc", "method_in_brief": "as §1"}, "[12]": {"molecular_target": "Fuc(a1-3)[Gal(b1-4)]GlcNAc6S", "method_in_brief": "as §1"}, "[13]": {"molecular_target": "Fuc(a1-3)[Gal3S(b1-4)]Glc", "method_in_brief": "as §1"}, "[14]": {"molecular_target": "Fuc(a1-3)[Gal3S(b1-4)]GlcNAc", "method_in_brief": "as §1"}, "[15]": {"molecular_target": "Fuc(a1-3)[Gal3S(b1-4)]GlcNAc6S", "method_in_brief": "as §1"}, "[16]": {"molecular_target": "Fuc(a1-3)[GalNAc(b1-4)]GlcNAc", "method_in_brief": "as §1"}, "[17]": {"molecular_target": "Fuc(a1-3)[GalNAc(b1-4)]GlcNAc6S", "method_in_brief": "as §1"}, "Fuc(a1-4)GlcNAc": {"molecular_target": "Fuc(a1-4)GlcNAc", "method_in_brief": "as §1"}, "Fuc(b1-3)GlcNAc": {"molecular_target": "Fuc(b1-3)GlcNAc", "method_in_brief": "as §1"}, "Gal(a1-2)Gal": {"molecular_target": "Gal(a1-2)Gal", "method_in_brief": "as §1"}, "Gal(a1-3)Gal": {"molecular_target": "Gal(a1-3)Gal", "method_in_brief": "as §1"}, "Gal(a1-3)Gal(b1-3)GlcNAc": {"molecular_target": "Gal(a1-3)Gal(b1-3)GlcNAc", "method_in_brief": "as §1"}, "[18]": {"molecular_target": "Gal(a1-3)Gal(b1-3)GlcNAc(b1-2)Man", "method_in_brief": "as §1"}, "[19]": {"molecular_target": "Gal(a1-3)Gal(b1-3)GlcNAc(b1-2)Man(a1-3)[Gal(a1-3)Gal(b1-3)GlcNAc(b1-2)Man(a1-6)]Man(b1-4)GlcNAc(b1-4)GlcNAc", "method_in_brief": "as §1"}, "[20]": {"molecular_target": "Gal(a1-3)Gal(b1-3)GlcNAc(b1-3)GalNAc", "method_in_brief": "as §1"}, "[21]": {"molecular_target": "Gal(a1-3)Gal(b1-3)GlcNAc(b1-6)GalNAc", "method_in_brief": "as §1"}, "[22]": {"molecular_target": "Gal(a1-3)Gal(b1-3)[Fuc(a1-4)]GlcNAc(b1-2)Man(a1-3)[Gal(a1-3)Gal(b1-3)[Fuc(a1-4)]GlcNAc(b1-2)Man(a1-6)]Man(b1-4)GlcNAc(b1-4)GlcNAc", "method_in_brief": "as §1"}, "Gal(a1-3)Gal(b1-4)Glc": {"molecular_target": "Gal(a1-3)Gal(b1-4)Glc", "method_in_brief": "as §1"}, "Gal(a1-3)Gal(b1-4)GlcNAc": {"molecular_target": "Gal(a1-3)Gal(b1-4)GlcNAc", "method_in_brief": "as §1"}, "[23]": {"molecular_target": "Gal(a1-3)Gal(b1-4)GlcNAc(b1-2)Man", "method_in_brief": "as §1"}, "[24]": {"molecular_target": "Gal(a1-3)Gal(b1-4)GlcNAc(b1-2)Man(a1-3)[Gal(a1-3)Gal(b1-4)GlcNAc(b1-2)Man(a1-6)]Man(b1-4)GlcNAc(b1-4)GlcNAc", "method_in_brief": "as §1"}, "[25]": {"molecular_target": "Gal(a1-3)Gal(b1-4)GlcNAc(b1-3)GalNAc", "method_in_brief": "as §1"}, "[26]": {"molecular_target": "Gal(a1-3)Gal(b1-4)GlcNAc(b1-6)GalNAc", "method_in_brief": "as §1"}, "[27]": {"molecular_target": "Gal(a1-3)Gal(b1-4)[Fuc(a1-3)]GlcNAc", "method_in_brief": "as §1"}, "[28]": {"molecular_target": "Gal(a1-3)Gal(b1-4)[Fuc(a1-3)]GlcNAc(b1-2)Man(a1-3)[Gal(a1-3)Gal(b1-4)[Fuc(a1-3)]GlcNAc(b1-2)Man(a1-6)]Man(b1-4)GlcNAc(b1-4)GlcNAc", "method_in_brief": "as §1"}, "Gal(a1-3)GalNAc": {"molecular_target": "Gal(a1-3)GalNAc", "method_in_brief": "as §1"}, "[29]": {"molecular_target": "Gal(a1-3)[Gal(a1-4)]Gal(b1-4)GlcNAc", "method_in_brief": "as §1"}, "[30]": {"molecular_target": "Gal(a1-4)Gal(b1-3)GlcNAc(b1-2)Man(a1-3)[Gal(a1-4)Gal(b1-3)GlcNAc(b1-2)Man(a1-6)]Man(b1-4)GlcNAc(b1-4)GlcNAc", "method_in_brief": "as §1"}, "Gal(a1-4)Gal(b1-4)Glc": {"molecular_target": "Gal(a1-4)Gal(b1-4)Glc", "method_in_brief": "as §1"}, "Gal(a1-4)Gal(b1-4)GlcNAc": {"molecular_target": "Gal(a1-4)Gal(b1-4)GlcNAc", "method_in_brief": "as §1"}, "[31]": {"molecular_target": "Gal(a1-4)Gal(b1-4)GlcNAc(b1-2)Man(a1-3)[Gal(a1-4)Gal(b1-4)GlcNAc(b1-2)Man(a1-6)]Man(b1-4)GlcNAc(b1-4)GlcNAc", "method_in_brief": "as §1"}, "[32]": {"molecular_target": "Gal(a1-4)Gal(b1-4)GlcNAc(b1-3)Gal(b1-4)Glc", "method_in_brief": "as §1"}, "Gal(a1-4)GlcNAc": {"molecular_target": "Gal(a1-4)GlcNAc", "method_in_brief": "as §1"}, "Gal(a1-6)Glc": {"molecular_target": "Gal(a1-6)Glc", "method_in_brief": "as §1"}}, "note": "Some of the results follow.", "data": [{"binder": "B1", "values": [{"measurement": "glycan array binding signal (z-score)", "setting": "Fuc(a1-3)GlcNAc", "result": -1.01}, {"measurement": "glycan array binding signal (z-score)", "setting": "[1]", "result": 0.954}, {"measurement": "glycan array binding signal (z-score)", "setting": "[2]", "result": -0.294}, {"measurement": "glycan array binding signal (z-score)", "setting": "[3]", "result": -0.631}, {"measurement": "glycan array binding signal (z-score)", "setting": "[4]", "result": -1.03}, {"measurement": "glycan array binding signal (z-score)", "setting": "[5]", "result": 0.696}, {"measurement": "glycan array binding signal (z-score)", "setting": "[6]", "result": -0.223}, {"measurement": "glycan array binding signal (z-score)", "setting": "[7]", "result": -0.65}, {"measurement": "glycan array binding signal (z-score)", "setting": "[8]", "result": -0.258}, {"measurement": "glycan array binding signal (z-score)", "setting": "[9]", "result": 0.595}, {"measurement": "glycan array binding signal (z-score)", "setting": "[10]", "result": -0.089}, {"measurement": "glycan array binding signal (z-score)", "setting": "[11]", "result": -0.127}, {"measurement": "glycan array binding signal (z-score)", "setting": "[12]", "result": 1.31}, {"measurement": "glycan array binding signal (z-score)", "setting": "[13]", "result": -0.433}, {"measurement": "glycan array binding signal (z-score)", "setting": "[14]", "result": -0.584}, {"measurement": "glycan array binding signal (z-score)", "setting": "[15]", "result": -0.406}, {"measurement": "glycan array binding signal (z-score)", "setting": "[16]", "result": -0.247}, {"measurement": "glycan array binding signal (z-score)", "setting": "[17]", "result": -1.02}, {"measurement": "glycan array binding signal (z-score)", "setting": "Fuc(a1-4)GlcNAc", "result": -0.406}, {"measurement": "glycan array binding signal (z-score)", "setting": "Fuc(b1-3)GlcNAc", "result": -0.131}, {"measurement": "glycan array binding signal (z-score)", "setting": "Gal(a1-2)Gal", "result": -0.066}, {"measurement": "glycan array binding signal (z-score)", "setting": "Gal(a1-3)Gal", "result": 0.272}, {"measurement": "glycan array binding signal (z-score)", "setting": "Gal(a1-3)Gal(b1-3)GlcNAc", "result": 0.373}, {"measurement": "glycan array binding signal (z-score)", "setting": "[18]", "result": -0.645}, {"measurement": "glycan array binding signal (z-score)", "setting": "[19]", "result": -0.319}, {"measurement": "glycan array binding signal (z-score)", "setting": "[20]", "result": -0.42}, {"measurement": "glycan array binding signal (z-score)", "setting": "[21]", "result": -0.511}, {"measurement": "glycan array binding signal (z-score)", "setting": "[22]", "result": -0.615}, {"measurement": "glycan array binding signal (z-score)", "setting": "Gal(a1-3)Gal(b1-4)Glc", "result": -0.172}, {"measurement": "glycan array binding signal (z-score)", "setting": "Gal(a1-3)Gal(b1-4)GlcNAc", "result": -0.25}, {"measurement": "glycan array binding signal (z-score)", "setting": "[23]", "result": -0.207}, {"measurement": "glycan array binding signal (z-score)", "setting": "[24]", "result": 0.755}, {"measurement": "glycan array binding signal (z-score)", "setting": "[25]", "result": -0.786}, {"measurement": "glycan array binding signal (z-score)", "setting": "[26]", "result": 0.726}, {"measurement": "glycan array binding signal (z-score)", "setting": "[27]", "result": -0.631}, {"measurement": "glycan array binding signal (z-score)", "setting": "[28]", "result": -0.503}, {"measurement": "glycan array binding signal (z-score)", "setting": "Gal(a1-3)GalNAc", "result": 2.27}, {"measurement": "glycan array binding signal (z-score)", "setting": "[29]", "result": 7.86}, {"measurement": "glycan array binding signal (z-score)", "setting": "[30]", "result": -1.03}, {"measurement": "glycan array binding signal (z-score)", "setting": "Gal(a1-4)Gal(b1-4)Glc", "result": 1.77}, {"measurement": "glycan array binding signal (z-score)", "setting": "Gal(a1-4)Gal(b1-4)GlcNAc", "result": 0.354}, {"measurement": "glycan array binding signal (z-score)", "setting": "[31]", "result": 0.423}, {"measurement": "glycan array binding signal (z-score)", "setting": "[32]", "result": -0.604}, {"measurement": "glycan array binding signal (z-score)", "setting": "Gal(a1-4)GlcNAc", "result": -0.523}, {"measurement": "glycan array binding signal (z-score)", "setting": "Gal(a1-6)Glc", "result": 0.018}]}]}
